Results are given in words; binding and its absence hold for the method and conditions named. Some entries that bind do so weakly or less than the wild type.
Molecular target: T1, fluorescently labelled CD276 antigen (UniProt Q5ZPR3)
T1 sequence (fluorescently labelled (fluorophore and site not stated), looked up): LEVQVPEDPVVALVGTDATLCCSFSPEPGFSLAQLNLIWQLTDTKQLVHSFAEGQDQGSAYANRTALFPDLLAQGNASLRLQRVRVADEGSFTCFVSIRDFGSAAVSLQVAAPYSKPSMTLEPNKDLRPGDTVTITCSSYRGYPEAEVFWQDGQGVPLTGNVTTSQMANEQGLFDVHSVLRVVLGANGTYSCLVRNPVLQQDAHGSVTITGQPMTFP
Experiment: flow cytometry; labelled soluble CD276 antigen on CHO cells expressing CARs from the hSync CARPool vector

binding: binds
B1: CD276 CAR (protein)
chain: EIVMTQSPATLSVSPGERVTLSCRASQSISDYLYWYQQKSHESPRLLIKYASQSISGIPARFSGSGSGSEFTLTINSVEPEDVGVYYCQNGHSFPLTFGQGTKLELKRSGGGGSGGGGSGGGGSGGGGQVQLVQSGAEVVKPGASVKLSCKTSGYTFTNYDINWVRQRPGQGLEWIGWIFPGDDSTQYNEKFKGKATLTTDTSTSTAYMELSSLRSEDTAVYFCARQTTGTWFAYWGQGTLVTVSSAAAIEVMYPPPYLDNEKSNGTIIHVKGKHLCPSPLFPGPSKPFWVLVVVGGVLACYSLLVTVAFIIFWVRSKRSRLLHSDYMNMTPRRPGPTRKHYQPYAPPRDFAAYRSRVKFSRSADAPAYQQGQNQLYNELNLGRREEYDVLDKRRGRDPEMGGKPRRKNPQEGLYNELQKDKMAEAYSEIGMKGERRRGKGHDGLYQGLSTATKDTYDALHMQALPPRVSGWRLFKKIS

— US20250177526A1
